According to patent publication US11690833B2, “Personal care compositions” (priority 2017, dated 2023):

Conditions: room temperature

SMILES: CCCCCCCCCCCCCCCC[n+]1ccccc1 [CPC, cetylpyridinium chloride, reference compound]
- concentration producing a translucent gel or soft-solid material in water: greater than 40 weight %
- concentration up to which readily soluble in water: ≥ 25 weight %

SMILES: [Cl-].[Cl-].[Zn+2] [ZnCl2, zinc chloride]
- concentration up to which readily soluble in water: ≥ 75 weight %
